In US6864396B2, “Substituted pentacene semiconductors” (3M Innovative Properties Company, priority 2001, dated 2005):

Key:
[1] = Performance testing of organic thin film transistors (OTFTs); settings: for Charge-Carrier Mobility: room temperature in air
[2] = Solvent resistance of OTFT semiconductor layer (drops of 2-propanol); settings: for Physical changes of semiconductor layer after 2-propanol: on both silicon oxide and aluminum oxide

Compound | On/Off Ratio ([1]; gate dielectric SiO2) | Sub-Threshold Slope ([1]; gate dielectric SiO2) | Threshold Voltage ([1]; gate dielectric SiO2) | Charge-Carrier Mobility ([1]; gate dielectric SiO2, averaged) | Mobility after 2-propanol ([2]; on aluminum oxide) | Physical changes of semiconductor layer after 2-propanol [2] | Mobility after 2-propanol ([2]; on silicon oxide) | On/Off Ratio ([1]; gate dielectric Al2O3) | Sub-Threshold Slope ([1]; gate dielectric Al2O3) | Threshold Voltage ([1]; gate dielectric Al2O3) | Charge-Carrier Mobility ([1]; gate dielectric Al2O3) | OTFT device function after 2-propanol ([2]; silicon oxide and aluminum oxide)
CCCCCCc1ccc2cc3cc4cc5cc(CCCCCC)ccc5cc4cc3cc2c1 [2,9-dihexylpentacene, 2,9-Dihexylpentacene] | 3.15E+03 | 4.652 V/decade | +1.28 V | 0.251 cm^2/Vs | – | – | – | – | – | – | – | –
Cc1ccc2cc3cc4cc5cc(C)ccc5cc4cc3cc2c1 [2,9-dimethylpentacene, 2,9-Dimethylpentacene] | 1.93E+05 | 3.318 V/decade | −11.51 V | 0.344 cm^2/Vs | unchanged | appeared unchanged | decreased by a factor of about two | 3.53E+04 | 2.241 V/decade | +0.01 V | 0.680 cm^2/Vs | –
c1ccc2cc3cc4cc5ccccc5cc4cc3cc2c1 [pentacene] | 1.66E+05 | 4.12 V/decade | −8.46 V | 0.297 cm^2/Vs | – | numerous cracks | – | 1.88E+07 | 1.72 V/decade | −6.71 V | 0.972 cm^2/Vs | not functional
